{"source": "paper PMC5852081", "about": "“The preprophase band-associated kinesin-14 OsKCH2 is a processive minus-end-directed microtubule motor” (Nature Communications, 2018)", "binders": {"B1": {"name": "GFP-OsKCH1(292–744) (domain or fragment, O. sativa, UniProt Q0IMS9 292-744, looked up)", "chain": "GEVKQFQLEAQTNFDVQQKQIQELKGALSFVKSGMEQLRLQYSEEFAKLGKHFYTLSNAASSYHKVLEENRKLYNQIQDLKGNIRVYCRVRPFLPGHRSLSSSVADTEERTITIITPTKYGKDGCKSFSFNRVFGPASTQEEVFSDMQPLIRSVLDGFNVCIFAYGQTGSGKTFTMSGPKVLTEESLGVNYRALNDLFNIKAQRKGTIDYEISVQMIEIYNEQVRDLLQDGGNRRLEIRNTPQKGLAVPDASIVPVTSTADVVELMNQGQKNRAVGSTAINDRSSRSHSCLSVHVQGKYLTSGAMLRGCMHLVDLAGSERVDKSEVVGDRLKEAQYINKSLSALGDVIASLAQKNSHVPYRNSKLTQLLQDSLGGQAKTLMFVHVSPELDAVGETISTLKFAERVASVELGAAKANKEGSEVRELKEQIATLKAALAKKEGEPENIQSTQSSP", "notes": "codon-optimized synthetic cDNA; source: E. coli BL21 Rosetta (DE3), purified (Talon beads); not shown: GFP, N-terminal, kept"}}, "biological_target": "taxol-stabilized microtubules polymerized from unlabeled tubulin", "experiment": "co-sedimentation; purified KCH construct mixed with taxol-stabilized microtubules, BRB80/25 mM KCl, 40 µM taxol, room temperature 30 min, 100,000 x g 20 min at 37 °C; Coomassie SDS-PAGE of supernatant and pellet; both purified", "note": "No constants are given. Whether binding was seen depends on the method and setting. Binding can be weak; no strength is given. Sequences can lack the tags named with a protein."}
{"binder": "B1", "values": [{"measurement": "binding", "value": "binds weakly"}]}
